Measured values taken from PMC11506057, “Identification of Podoplanin Aptamers by SELEX for Protein Detection and Inhibition of Platelet Aggregation Stimulated by C-Type Lectin-like Receptor 2”.

Sequences of proteins named here, by UniProt entry; tags and fusion partners are left off. A change or cut given only in a name is not applied to a line headed by its entry.
UniProt Q9P126: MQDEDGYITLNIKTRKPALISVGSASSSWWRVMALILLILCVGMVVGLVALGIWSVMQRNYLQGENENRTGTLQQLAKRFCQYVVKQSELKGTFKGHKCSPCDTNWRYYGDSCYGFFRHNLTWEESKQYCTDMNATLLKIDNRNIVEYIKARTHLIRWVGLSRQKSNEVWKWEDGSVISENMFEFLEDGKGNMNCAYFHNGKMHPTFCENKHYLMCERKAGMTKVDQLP

Tests used:
[1] = target: podoplanin (PDPN), denatured (UniProt Q86YL7); experiment: dot blot; conditions: denatured PDPN, commercial protein, protein details: His, Fc, folded or branched DNA
[2] = target: CLEC-2 without tag (human) (UniProt Q9P126); experiment: flow cytometry; conditions: FAM-A1 1 uM, HEK293T; protein on the cell surface; folded or branched DNA
[3] = target: podoplanin (PDPN) on PDPN+-OECM-1 cells (UniProt Q86YL7); experiment: flow cytometry; conditions: concentration-dependent, PDPN-negative CHO-K1 cells not bound; protein on the cell surface; folded or branched DNA
[4] = target: CLEC-2 with C-terminal His-Tag (human) (UniProt Q9P126); experiment: flow cytometry; conditions: FAM-A1 1 uM, HEK293T; protein on the cell surface; protein details: C-terminal His; folded or branched DNA
[5] = target: podoplanin (PDPN), denatured (UniProt Q86YL7); experiment: Western blot with aptamer probe; conditions: 200 nM biotin-A1, signal linear with PDPN, R2 0.8984; commercial protein; protein details: His, Fc; folded or branched DNA
[6] = target: T1, podoplanin (PDPN), recombinant PDPN-His-Fc (UniProt Q86YL7); experiment: dot blot; conditions: PDPN 50 nM, aptamer 80 nM, weakest of six, commercial protein, protein details: His, label: biotin, folded or branched DNA
T1 sequence (looked up, limits assumed): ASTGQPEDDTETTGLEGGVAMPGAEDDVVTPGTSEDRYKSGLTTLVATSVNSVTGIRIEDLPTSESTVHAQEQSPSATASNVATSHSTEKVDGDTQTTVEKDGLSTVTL

ATCCAGAGTGACGCAGCACACCGAGGGGACTGCTCGGGATTGCGGATGAGGTAGCAAGTGGACACGGTGGCTTAGT [A6]
binding result ([1]; label: biotin): binds more weakly

ATCCAGAGTGACGCAGCACGGGTTTGGCGCCGGGCCTGGCGGGTGTAGCGTTTTTGGGTGGACACGGTGGCTTAGT [A289]
binding result ([1]; label: biotin): binds more weakly

ATCCAGAGTGACGCAGCATCACTAGTGCGCCAGGGGGACTGCTCGGGATTGCGGATACTGGACACGGTGGCTTAGT [A1]
binding result ([1]; recognized, but less than native): binds more weakly
binding result [2]: no binding
binding result [3]: binds
binding result [4]: no binding
binding result [5]: binds

ATCCAGAGTGACGCAGCATGCAGGGTTTGGCTTCGGGCCTGGCGGAGAGAGCGTGAGGTGGACACGGTGGCTTAGT [A1498]
binding result ([1]; label: biotin): binds more weakly

ATCCAGAGTGACGCAGCATGCCAAAGGGTCTGCTCGGGATTGCGGAGAGGGCTTGGGGTGGACACGGTGGCTTAGT [A5]
binding result ([1]; label: biotin): binds more weakly

ATCCAGAGTGACGCAGCATGGGGGGAGAGTGTGGTCTGGCTTGGTGGGGTCTGGGGGCTGGACACGGTGGCTTAGT [A77]
binding result [6]: binds more weakly
binding result ([1]; label: biotin): binds more weakly

The exact form of at least one protein or probe is not confirmed. For some assays here: Weaker means in comparison with the reference protein, sequence or condition of that experiment. For some assays here: At least one verdict was read from the data and is not stated in words by the source. For some assays here: Protein sequences can lack the tags named with them. For some assays here: At least one result comes from cells or an extract, where the contact may be indirect. For some assays here: Negatives hold for the conditions tested.
